Measurements reported in PubChem BioAssay AID743454 (Peter MacCallum Cancer Centre, 2014)

- Screen: 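Genes whose loss kills vorinostat-resistant colon cancer cells under vorinostat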 (primary screen)
- Cell system: human HCT116-VR colon cancer cells, selected for vorinostat resistance
- Knock-down reagent: siRNA pool against human genes, 40 nM siRNA pool
- Time to read-out: vorinostat for 24 h, read-out about 72 h after transfection
- Challenge: vorinostat at 2.5 µM final
- Detection: 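Cell viability by CellTiter-Fluor and caspase 3/7 activity by luminescence, each scaled to mock wells per plate, duplicates averaged, then robust z-scored over all plates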
- Reading the numbers: viability robust z-score: higher = more viable cells than screen typical; caspase robust z-score: higher = more caspase 3/7 activity than screen typical
- Hit rule: 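a knock-down is a hit when classed RV1 or RV2 for lowered viability, or CA1 or CA2 for caspase activation; those lethal without drug were dropped; hits were retested singly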
The whole screen tested about 18,000 reagents; this is a random part of them. In the full data, 450 (2.5%) are marked active. 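Single biological run; no consistent viability z cut-off exists, so the class columns, not z-scores, define the calls.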 A number with no mark means an inactive call.

no.	gene	viability hit class	caspase hit class	viability robust z-score	caspase robust z-score
1	CDK5R2 (cyclin dependent kinase 5 regulatory subunit 2)	no change	no change	-0.54	-0.97
2	MTX2 (metaxin 2)	no change	no change	0.48	0.52
3	TSSK2 (testis specific serine kinase 2)	no change	no change	-0.24	0.46
4	C11orf71 (chromosome 11 open reading frame 71)	no change	no change	-2.24	-0.52
5	PPME1 (protein phosphatase methylesterase 1)	no change	no change	-0.06	3.71
6	ZNF595 (zinc finger protein 595)	no change	no change	-0.62	-0.6
7	NSUN5P1 (NSUN5 pseudogene 1)	no change	no change	-0.29	1.35
8	SERP1 (stress associated endoplasmic reticulum protein 1)	no change	no change	-0.93	0.8
9	CCNE1 (cyclin E1)	no change	no change	-0.3	-0.29
10	H1-0 (H1.0 linker histone)	no change	no change	0.02	-0.08
11	GMNN (geminin DNA replication inhibitor)	no change	no change	-0.81	2.54
12	NES (nestin)	no change	no change	0.04	-1.06
13	GPR101 (G protein-coupled receptor 101)	RV2 (reduced viability) (active)	no change	-3.34	-0.15
14	LSAMP (limbic system associated membrane protein)	no change	no change	1.54	0.12
15	KLHL31 (kelch like family member 31)	no change	no change	0.94	-0.53
16	C5 (complement C5)	no change	no change	-0.08	1.06
17	OR5L2 (olfactory receptor family 5 subfamily L member 2)	no change	no change	-1.01	1.73
18	SVOP (SV2 related protein)	no change	no change	0.5	-0.72
19	SUZ12 (SUZ12 polycomb repressive complex 2 subunit)	no change	no change	-0.88	-0.06
20	RAPSN (receptor associated protein of the synapse)	no change	no change	0.65	-0.48
21	ADORA3 (adenosine A3 receptor)	no change	no change	-0.92	-0.96
22	GJD2 (gap junction protein delta 2)	no change	no change	-0.4	2.92
23	H1-10 (H1.10 linker histone)	no change	no change	-1.37	0.46
